Among the data in paper PMC11672691 are binding values, retold here.

Amino acid sequences for entries named in this document (tags omitted). A change or cut given only in a name is not applied to a line headed by its entry. Residues count along the entry.
UniProt Q99623: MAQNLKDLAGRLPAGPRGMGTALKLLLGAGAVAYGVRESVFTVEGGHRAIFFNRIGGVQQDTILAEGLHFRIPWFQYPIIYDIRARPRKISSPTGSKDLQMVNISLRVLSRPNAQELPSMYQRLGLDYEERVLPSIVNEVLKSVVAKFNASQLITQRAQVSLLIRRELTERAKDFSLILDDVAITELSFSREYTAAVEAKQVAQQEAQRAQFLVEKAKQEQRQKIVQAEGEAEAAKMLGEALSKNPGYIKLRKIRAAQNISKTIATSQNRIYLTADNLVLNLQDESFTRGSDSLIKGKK
UniProt Q99595: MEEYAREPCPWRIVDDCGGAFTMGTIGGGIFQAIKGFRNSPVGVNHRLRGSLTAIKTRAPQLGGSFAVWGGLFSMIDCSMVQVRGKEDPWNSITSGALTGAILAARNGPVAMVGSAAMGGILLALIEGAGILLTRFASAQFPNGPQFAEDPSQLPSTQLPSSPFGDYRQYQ
UniProt O60830: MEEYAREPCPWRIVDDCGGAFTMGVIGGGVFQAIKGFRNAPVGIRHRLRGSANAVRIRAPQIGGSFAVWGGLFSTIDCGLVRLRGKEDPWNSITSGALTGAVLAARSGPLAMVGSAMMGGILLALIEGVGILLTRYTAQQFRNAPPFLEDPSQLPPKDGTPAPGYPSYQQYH
UniProt Q15388: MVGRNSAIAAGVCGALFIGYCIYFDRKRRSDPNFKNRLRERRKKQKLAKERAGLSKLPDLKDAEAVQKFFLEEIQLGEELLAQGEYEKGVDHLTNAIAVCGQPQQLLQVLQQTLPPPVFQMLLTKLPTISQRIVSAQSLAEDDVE
UniProt Q9Y4W6, residues 67-797: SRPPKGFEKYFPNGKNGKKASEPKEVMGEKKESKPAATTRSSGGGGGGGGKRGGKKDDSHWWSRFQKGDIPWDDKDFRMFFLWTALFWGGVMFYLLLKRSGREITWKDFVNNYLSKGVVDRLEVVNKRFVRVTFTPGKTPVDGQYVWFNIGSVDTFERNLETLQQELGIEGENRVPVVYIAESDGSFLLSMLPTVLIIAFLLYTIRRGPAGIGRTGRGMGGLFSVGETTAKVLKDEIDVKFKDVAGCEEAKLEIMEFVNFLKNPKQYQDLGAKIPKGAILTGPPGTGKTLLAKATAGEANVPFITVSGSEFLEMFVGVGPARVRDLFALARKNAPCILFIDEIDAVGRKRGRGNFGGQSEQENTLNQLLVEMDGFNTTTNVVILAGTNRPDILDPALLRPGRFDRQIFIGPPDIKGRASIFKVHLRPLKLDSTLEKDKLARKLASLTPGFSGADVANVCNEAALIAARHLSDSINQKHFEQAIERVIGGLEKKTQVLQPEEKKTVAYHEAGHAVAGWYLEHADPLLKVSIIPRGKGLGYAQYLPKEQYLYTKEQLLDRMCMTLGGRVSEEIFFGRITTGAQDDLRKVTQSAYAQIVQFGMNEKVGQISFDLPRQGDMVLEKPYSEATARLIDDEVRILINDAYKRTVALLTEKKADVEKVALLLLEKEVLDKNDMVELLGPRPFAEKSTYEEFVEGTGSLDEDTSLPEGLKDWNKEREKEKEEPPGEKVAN

These are yes or no findings as the source states them, for the method shown. For some assays here: In cells and extracts the contact can be indirect. Some binding calls cover weakened binding; strength is not graded here. For some assays here: Tags and fused reporters may be left off the sequences shown.

Experiment [1] addresses PHB2-HA (Prohibitin 2 with C-terminal HA tag) (human) (UniProt Q99623). The experiment can be described thus: co-IP; mitochondria of HEK293T cells transiently expressing the HA-tagged bait (PHB2-HA, HA-TIMM17A, HA-TIMM17B) or an empty vector, solubilised with digitonin (3:1 w/w detergent to protein) in Buffer B (0.22 M mannitol, 0.07 M sucrose, 0.02 M HEPES-KOH pH 7.6, 1 mM EDTA), anti-HA agarose 1 h at 4°C, eluted with sample buffer, SDS-PAGE and western blot.

Experiment [2] deals with T1, OCIAD1_(FLAG) (ovarian cancer immunoreactive antigen domain-containing protein 1, FLAG-tagged) (human) (UniProt Q9NX40).
T1 sequence: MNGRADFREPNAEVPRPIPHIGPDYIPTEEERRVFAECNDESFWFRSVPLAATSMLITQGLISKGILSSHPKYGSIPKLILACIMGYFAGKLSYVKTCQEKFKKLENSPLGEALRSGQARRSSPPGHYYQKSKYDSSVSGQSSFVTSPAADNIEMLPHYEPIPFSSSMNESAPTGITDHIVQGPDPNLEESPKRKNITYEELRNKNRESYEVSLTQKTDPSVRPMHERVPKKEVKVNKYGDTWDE
Nature of the experiment: co-IP; mitochondria of cells expressing the FLAG-tagged bait (OCIAD1_(FLAG) transiently in HEK293; TIMM21_(FLAG), TIMM23_(FLAG) tetracycline-induced in HEK293T) or an empty vector, solubilised in 1% digitonin buffer (150 mM NaCl, pH 7.4), anti-FLAG M2 affinity gel 2 h at 4°C, washed with 0.3% digitonin, eluted with Laemmli buffer, SDS-PAGE and western blot. Background: In western blotting, separated proteins are transferred to a membrane and probed.

The target in the next experiment is T2, TIMM23_(FLAG) (human) (UniProt O14925).
T2 sequence: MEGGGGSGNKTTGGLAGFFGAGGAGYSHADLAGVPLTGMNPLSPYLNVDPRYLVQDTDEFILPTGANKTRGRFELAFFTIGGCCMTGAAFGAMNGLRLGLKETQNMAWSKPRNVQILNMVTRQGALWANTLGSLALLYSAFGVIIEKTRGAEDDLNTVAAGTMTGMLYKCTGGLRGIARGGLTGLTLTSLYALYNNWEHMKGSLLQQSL
Described as above.

The next experiment deals with T3, TIMM21_(FLAG) (human) (UniProt Q9BVV7).
T3 sequence: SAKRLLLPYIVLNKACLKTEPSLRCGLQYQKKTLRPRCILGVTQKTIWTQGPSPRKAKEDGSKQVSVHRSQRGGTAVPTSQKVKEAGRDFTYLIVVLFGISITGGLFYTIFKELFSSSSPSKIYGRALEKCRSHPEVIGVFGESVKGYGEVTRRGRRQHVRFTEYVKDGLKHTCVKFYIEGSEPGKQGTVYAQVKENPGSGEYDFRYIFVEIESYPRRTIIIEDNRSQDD
The experiment is described as above.

In the next experiment the target is HA-TIMM17A (human) (UniProt Q99595). Nature of the experiment: co-IP; mitochondria of HEK293T cells transiently expressing the HA-tagged bait (PHB2-HA, HA-TIMM17A, HA-TIMM17B) or an empty vector, solubilised with digitonin (3:1 w/w detergent to protein) in Buffer B (0.22 M mannitol, 0.07 M sucrose, 0.02 M HEPES-KOH pH 7.6, 1 mM EDTA), anti-HA agarose 1 h at 4°C, eluted with sample buffer, SDS-PAGE and western blot.

The next experiment deals with HA-TIMM17B (human) (UniProt O60830). The description is as above.
Experiment [3] has as its target PHB2 (endogenous) (human (endogenous in HEK293 and HEK293T)) (UniProt Q99623). Nature of the experiment: native gel or EMSA; in organello import of [^35S]OCIAD1 into mitochondria isolated from HEK293 control and PHB2 siRNA-depleted cells, solubilised in 1% digitonin buffer, 3%-13% BN-PAGE, autoradiography. A general note: A gel shift assay detects complexes by their altered migration in electrophoresis.

With “TIMM17B (endogenous) (from UniProt O60830-1 1-172)”, in experiment [1], the binding result is recorded as “binds”.

“TOMM20 (endogenous) (from UniProt Q15388 1-145)”: the binding entry in experiment [2] is reported as “binds”.

On to “TIMM17A (endogenous) (from UniProt Q99595 1-171)”, for which the binding entry (in experiment [1]; with TIMM23_(FLAG) (human); with TIMM21_(FLAG) (human)) was “binds” in each case.

As to “AFG3L2 (endogenous) (from UniProt Q9Y4W6 67-797) (enzyme)”, in experiment [2], the binding result is “binds”.

B1: TIMM23 (endogenous) (protein, UniProt O14925 1-209)
chain: T2 sequence
Take B1: the binding result (with HA-TIMM17A (human); in experiment [1]; in the experiment with HA-TIMM17B (human); in experiment [2]) was “binds” each time.

B2: OCIAD1 (endogenous) (protein, UniProt Q9NX40 1-245)
chain: T1 sequence
Take B2: the binding entry (with HA-TIMM17A (human); in experiment [1]; with HA-TIMM17B (human); with TIMM23_(FLAG) (human); with TIMM21_(FLAG) (human)) was “binds” each time.

B3: [^35S]OCIAD1 (radiolabeled OCIAD1 precursor) (protein, UniProt Q9NX40 1-245)
chain: T1 sequence
modifications: 35S radiolabel ([^35S]methionine)
Regarding B3, in experiment [3], the binding result is on record as “binds”.

B4: TIMM22 (endogenous) (protein, UniProt Q9Y584 1-194)
chain: MAAAAPNAGGSAPETAGSAEAPLQYSLLLQYLVGDKRQPRLLEPGSLGGIPSPAKSEEQKMIEKAMESCAFKAALACVGGFVLGGAFGVFTAGIDTNVGFDPKDPYRTPTAKEVLKDMGQRGMSYAKNFAIVGAMFSCTECLIESYRGTSDWKNSVISGCITGGAIGFRAGLKAGAIGCGGFAAFSAAIDYYLR
Regarding B4, the binding result in experiment [2] is “binds”.
